Earlier results, collected in patent US5843713A, “Peptide sequence that forms mucin sugar chain and technique for modifying protein to be linked with mucin sugar chain” (Kirin Beer Kabushiki Kaisha, priority 1994, dated 1998).

Tested on: insect cell
Conditions: sequence inserted between the 80th and 81st amino acids of IL-2; literature

Substance | introduction of mucin type sugar chain
GGKAPTSSSTKGG: literature sequence inserted between the 80th and 81st amino acids of IL-2 | failed
GGKAPTPPPKGG: literature sequence inserted into IL-2, serine residues changed with proline | succeeded in introducing a sugar chain
